In article PMC8322090 one finds binding data, which are given here for five molecules.

Chains of the proteins cited; added tags and fusions are not shown.
UniProt Q13309: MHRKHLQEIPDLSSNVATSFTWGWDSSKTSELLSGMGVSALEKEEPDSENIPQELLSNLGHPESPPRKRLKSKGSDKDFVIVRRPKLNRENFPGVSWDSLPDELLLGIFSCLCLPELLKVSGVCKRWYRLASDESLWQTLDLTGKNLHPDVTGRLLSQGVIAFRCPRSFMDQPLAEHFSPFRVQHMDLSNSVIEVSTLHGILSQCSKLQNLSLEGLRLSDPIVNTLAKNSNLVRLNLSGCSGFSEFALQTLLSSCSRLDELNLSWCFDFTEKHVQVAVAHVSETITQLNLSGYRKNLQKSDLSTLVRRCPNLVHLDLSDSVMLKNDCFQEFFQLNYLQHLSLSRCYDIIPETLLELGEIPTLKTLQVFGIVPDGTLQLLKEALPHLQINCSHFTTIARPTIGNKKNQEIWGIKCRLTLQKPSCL
UniProt Q99496: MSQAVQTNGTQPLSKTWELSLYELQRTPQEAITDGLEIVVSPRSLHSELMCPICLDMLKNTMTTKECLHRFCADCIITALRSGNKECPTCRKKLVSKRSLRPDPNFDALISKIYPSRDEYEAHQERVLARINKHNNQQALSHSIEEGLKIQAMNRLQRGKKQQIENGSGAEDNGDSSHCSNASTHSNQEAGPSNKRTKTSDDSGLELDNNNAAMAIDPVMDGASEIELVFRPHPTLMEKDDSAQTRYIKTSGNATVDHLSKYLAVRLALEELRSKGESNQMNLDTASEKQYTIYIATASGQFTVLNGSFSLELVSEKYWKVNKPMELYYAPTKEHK
UniProt Q9UKV5: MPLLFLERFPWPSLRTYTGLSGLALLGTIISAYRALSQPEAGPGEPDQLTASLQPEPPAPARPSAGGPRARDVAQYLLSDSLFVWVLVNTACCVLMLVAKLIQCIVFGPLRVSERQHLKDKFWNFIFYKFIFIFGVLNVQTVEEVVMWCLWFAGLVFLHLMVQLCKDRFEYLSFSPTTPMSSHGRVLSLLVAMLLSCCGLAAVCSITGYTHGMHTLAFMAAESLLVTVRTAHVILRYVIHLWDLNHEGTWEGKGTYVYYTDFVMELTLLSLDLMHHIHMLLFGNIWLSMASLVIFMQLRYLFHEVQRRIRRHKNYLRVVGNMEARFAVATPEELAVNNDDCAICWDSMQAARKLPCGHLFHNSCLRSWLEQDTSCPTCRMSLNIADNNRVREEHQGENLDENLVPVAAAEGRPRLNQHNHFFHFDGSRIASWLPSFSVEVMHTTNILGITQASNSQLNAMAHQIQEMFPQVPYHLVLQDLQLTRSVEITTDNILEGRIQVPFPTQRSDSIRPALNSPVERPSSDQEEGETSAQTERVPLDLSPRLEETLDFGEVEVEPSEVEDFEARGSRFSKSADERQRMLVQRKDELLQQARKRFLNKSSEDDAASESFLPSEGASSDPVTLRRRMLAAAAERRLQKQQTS
UniProt O95071: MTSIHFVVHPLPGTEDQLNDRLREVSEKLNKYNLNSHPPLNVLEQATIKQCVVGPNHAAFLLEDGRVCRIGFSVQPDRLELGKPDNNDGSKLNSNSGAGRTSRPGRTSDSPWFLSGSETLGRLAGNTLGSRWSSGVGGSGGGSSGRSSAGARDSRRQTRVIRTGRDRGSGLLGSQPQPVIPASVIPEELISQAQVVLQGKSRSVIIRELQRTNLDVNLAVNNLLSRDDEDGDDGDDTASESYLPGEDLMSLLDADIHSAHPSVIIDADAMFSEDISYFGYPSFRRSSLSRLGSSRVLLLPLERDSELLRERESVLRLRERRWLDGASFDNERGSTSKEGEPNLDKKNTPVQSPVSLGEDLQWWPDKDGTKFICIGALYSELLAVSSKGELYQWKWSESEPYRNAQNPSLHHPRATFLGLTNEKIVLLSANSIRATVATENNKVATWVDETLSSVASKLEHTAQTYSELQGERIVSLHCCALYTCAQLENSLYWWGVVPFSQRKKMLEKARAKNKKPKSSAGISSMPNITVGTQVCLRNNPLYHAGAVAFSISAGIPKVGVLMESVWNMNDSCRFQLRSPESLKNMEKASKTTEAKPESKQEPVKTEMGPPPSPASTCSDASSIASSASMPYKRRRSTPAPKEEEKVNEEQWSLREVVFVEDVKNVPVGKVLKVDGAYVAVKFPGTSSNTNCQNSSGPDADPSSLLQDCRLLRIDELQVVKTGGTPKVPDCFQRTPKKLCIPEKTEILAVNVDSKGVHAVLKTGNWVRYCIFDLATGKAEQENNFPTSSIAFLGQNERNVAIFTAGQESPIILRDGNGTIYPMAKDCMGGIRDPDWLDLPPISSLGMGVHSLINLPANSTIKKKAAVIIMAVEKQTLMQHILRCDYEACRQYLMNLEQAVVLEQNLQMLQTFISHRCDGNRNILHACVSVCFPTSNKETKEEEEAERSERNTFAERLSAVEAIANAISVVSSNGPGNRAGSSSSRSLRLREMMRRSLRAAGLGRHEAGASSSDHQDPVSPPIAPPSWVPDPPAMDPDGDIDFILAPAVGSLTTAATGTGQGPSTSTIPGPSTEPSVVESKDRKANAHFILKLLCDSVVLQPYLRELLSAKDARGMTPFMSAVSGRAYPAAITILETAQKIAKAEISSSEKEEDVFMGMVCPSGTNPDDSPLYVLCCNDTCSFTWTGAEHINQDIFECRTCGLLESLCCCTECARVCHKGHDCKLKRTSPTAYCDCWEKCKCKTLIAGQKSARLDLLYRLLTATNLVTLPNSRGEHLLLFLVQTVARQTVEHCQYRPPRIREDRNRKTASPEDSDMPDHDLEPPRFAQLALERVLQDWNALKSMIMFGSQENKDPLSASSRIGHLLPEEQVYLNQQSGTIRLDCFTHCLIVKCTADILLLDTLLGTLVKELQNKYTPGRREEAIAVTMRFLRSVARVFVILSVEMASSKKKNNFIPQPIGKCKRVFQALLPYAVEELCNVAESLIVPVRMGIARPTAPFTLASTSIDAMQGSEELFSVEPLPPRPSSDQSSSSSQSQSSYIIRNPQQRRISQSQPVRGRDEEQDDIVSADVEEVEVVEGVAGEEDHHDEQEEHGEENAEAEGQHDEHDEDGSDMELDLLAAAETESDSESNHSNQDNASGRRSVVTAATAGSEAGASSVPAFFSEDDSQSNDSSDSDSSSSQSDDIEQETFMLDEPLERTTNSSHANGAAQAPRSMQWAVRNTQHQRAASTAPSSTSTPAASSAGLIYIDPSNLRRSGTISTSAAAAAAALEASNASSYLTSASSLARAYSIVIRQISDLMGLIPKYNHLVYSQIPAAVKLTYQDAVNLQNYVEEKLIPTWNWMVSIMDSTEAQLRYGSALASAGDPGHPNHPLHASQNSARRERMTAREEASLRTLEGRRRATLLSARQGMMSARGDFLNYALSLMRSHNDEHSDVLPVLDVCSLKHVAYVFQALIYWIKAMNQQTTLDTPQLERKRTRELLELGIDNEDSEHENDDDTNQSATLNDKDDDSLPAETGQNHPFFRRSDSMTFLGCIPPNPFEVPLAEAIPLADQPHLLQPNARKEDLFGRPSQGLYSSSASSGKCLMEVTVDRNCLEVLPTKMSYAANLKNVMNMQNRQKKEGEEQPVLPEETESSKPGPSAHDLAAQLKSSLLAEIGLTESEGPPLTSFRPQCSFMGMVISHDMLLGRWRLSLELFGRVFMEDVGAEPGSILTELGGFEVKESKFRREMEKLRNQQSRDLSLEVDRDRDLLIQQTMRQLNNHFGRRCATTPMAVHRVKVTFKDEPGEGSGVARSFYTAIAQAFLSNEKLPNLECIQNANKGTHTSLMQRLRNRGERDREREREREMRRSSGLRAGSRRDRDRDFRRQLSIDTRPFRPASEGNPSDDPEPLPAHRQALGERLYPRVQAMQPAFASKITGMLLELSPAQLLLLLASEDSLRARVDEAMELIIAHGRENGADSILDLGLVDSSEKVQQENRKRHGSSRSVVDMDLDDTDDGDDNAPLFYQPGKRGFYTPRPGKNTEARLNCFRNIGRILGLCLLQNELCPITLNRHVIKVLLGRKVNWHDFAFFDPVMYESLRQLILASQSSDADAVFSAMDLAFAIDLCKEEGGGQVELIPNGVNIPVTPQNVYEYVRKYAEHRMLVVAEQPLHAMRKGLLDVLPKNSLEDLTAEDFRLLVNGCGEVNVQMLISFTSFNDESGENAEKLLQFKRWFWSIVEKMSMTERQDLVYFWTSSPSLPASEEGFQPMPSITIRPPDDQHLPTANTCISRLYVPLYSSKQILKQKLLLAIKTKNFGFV
UniProt Q06587: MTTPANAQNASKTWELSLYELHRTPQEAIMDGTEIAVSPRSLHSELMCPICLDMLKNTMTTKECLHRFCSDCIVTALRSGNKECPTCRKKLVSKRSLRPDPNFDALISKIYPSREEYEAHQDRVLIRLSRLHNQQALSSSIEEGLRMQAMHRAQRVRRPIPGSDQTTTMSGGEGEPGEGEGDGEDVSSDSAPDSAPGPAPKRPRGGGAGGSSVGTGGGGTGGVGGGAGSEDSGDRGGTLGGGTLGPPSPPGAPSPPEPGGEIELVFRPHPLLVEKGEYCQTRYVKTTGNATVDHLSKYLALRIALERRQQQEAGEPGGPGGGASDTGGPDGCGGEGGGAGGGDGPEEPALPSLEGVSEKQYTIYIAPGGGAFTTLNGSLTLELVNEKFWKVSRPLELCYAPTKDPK

In the assay the target is SKP2, bait of the proteomic analysis of SKP2-interacting proteins (UniProt Q13309). Description: affinity purification with mass spectrometry; proteomic analysis of SKP2-interacting proteins after STA-9090 and MG132 treatment.

Results are given in words; binding and its absence hold for the method and conditions named. In cells and extracts the contact can be indirect. These calls come from enrichment with a bait or labelling near it, and not all partners need be listed.

For the molecule RNF2 (from UniProt Q99496 1-336), the binding result is reported as “binds”. The same measure for AMFR (from UniProt Q9UKV5 1-643): “binds”. In the case of UBR5 (from UniProt O95071 1-2799) it was “binds”; in that of RING1 (from UniProt Q06587 1-406), “binds”.

B1: RNF219 (protein, UniProt Q5W0B1 1-726)
chain: MAQTVQNVTLSLTLPITCHICLGKVRQPVICINNHVFCSICIDLWLKNNSQCPACRVPITPENPCKEIIGGTSESEPMLSHTVRKHLRKTRLELLHKEYEDEIDCLQKEVEELKSKNLSLESQIKTILDPLTLVQGNQNEDKHLVTDNPSKINPETVAEWKKKLRTANEIYEKVKDDVDKLKEANKKLKLENGGLVRENLRLKAEVDNRSPQKFGRFAVAALQSKVEQYERETNRLKKALERSDKYIEELESQVAQLKNSSEEKEAMNSICQTALSADGKGSKGSEEDVVSKNQGDSARKQPGSSTSSSSHLAKPSSSRLCDTSSARQESTSKADLNCSKNKDLYQEQVEVMLDVTDTSMDTYLEREWGNKPSDCVPYKDEELYDLPAPCTPLSLSCLQLSTPENRESSVVQAGGSKKHSNHLRKLVFDDFCDSSNVSNKDSSEDDISRSENEKKSECFSSPKTGFWDCCSTSYAQNLDFESSEGNTIANSVGEISSKLSEKSGLCLSKRLNSIRSFEMNRTRTSSEASMDAAYLDKISELDSMMSESDNSKSPCNNGFKSLDLDGLSKSSQGSEFLEEPDKLEEKTELNLSKGSLTNDQLENGSEWKPTSFFLLSPSDQEMNEDFSLHSSSCPVTNEIKPPSCLFQTEFSQGILLSSSHRLFEDQRFGSSLFKMSSEMHSLHNHLQSPWSTSFVPEKRNKNVNQSTKRKIQSSLSSASPSKATKS
Turning to B1, the binding entry is “binds”.
